Values are animals surviving of animals treated; these mice carried no tumour. Counts of survivors are from the toxicity check (mostly the fifth day) where no day follows; animals may have died later. Schedule codes are those of the source, read here as Q, the interval in days (D) or hours (H), X, the number of doses. Some molecules as drawn cover several salts, stereoisomers or complexes of the source; a dose is that of the sample tested. Some entries were tested several times; the results are listed from low to high.
Test system: B6D2F1 mice, nontumored toxicity test, survival
Assay: NCI In Vivo Anticancer Drug Screen. Data for tumor model Nontumored Animals (Toxicity Test) in B6D2F1 (BDF1) mice

O=C1c2ccccc2C(=O)c2c(NCCNCCO)ccc(NCCNCCO)c21
survivor count (dose: 32.0 mg/kg/injection, schedule: Q01DX001 (ip), vehicle: acid diluted with saline): 8 of 8 | survivor count (dose: 32.0 mg/kg/injection, schedule: Q01DX001 (ip), vehicle: saline): 8 of 8 | survivor count (dose: 32.0 mg/kg/injection, schedule: Q01DX001 (oral), vehicle: saline): 8 of 8 | survivor count (dose: 32.0 mg/kg/injection, schedule: Q01DX001 (sc), vehicle: acid diluted with saline): 8 of 8 | survivor count (dose: 32.0 mg/kg/injection, schedule: Q01DX005 (ip), vehicle: acid diluted with saline): 8 of 8 | survivor count (dose: 32.0 mg/kg/injection, schedule: Q01DX005 (ip), vehicle: saline): 8 of 8 | survivor count (dose: 32.0 mg/kg/injection, schedule: Q01DX005 (iv), vehicle: saline): 7 of 8 | survivor count (dose: 32.0 mg/kg/injection, schedule: Q01DX009 (ip), vehicle: acid diluted with saline): 8 of 8 | survivor count (dose: 32.0 mg/kg/injection, schedule: Q01DX009 (ip), vehicle: saline): 8 of 8 | survivor count (dose: 32.0 mg/kg/injection, schedule: Q01DX009 (oral), vehicle: acid diluted with saline): 8 of 8 | survivor count (dose: 32.0 mg/kg/injection, schedule: Q01DX009 (oral), vehicle: saline): 8 of 8 | survivor count (dose: 32.0 mg/kg/injection, schedule: Q01DX009 (sc), vehicle: acid diluted with saline): 8 of 8 | survivor count (dose: 32.0 mg/kg/injection, schedule: Q01DX009 (sc), vehicle: saline): 8 of 8 | survivor count (dose: 32.0 mg/kg/injection, schedule: Q03HX008 (ip), vehicle: acid diluted with saline): 2 of 8 | survivor count (dose: 32.0 mg/kg/injection, schedule: Q03HX008 (ip), vehicle: saline): 2 of 8 | survivor count (dose: 32.0 mg/kg/injection, schedule: Q03HX016 (ip), vehicle: acid diluted with saline): 3 of 8 | survivor count (dose: 32.0 mg/kg/injection, schedule: Q03HX024 (ip), vehicle: acid diluted with saline): 5 of 8 | survivor count (dose: 32.0 mg/kg/injection, schedule: Q04DX003 (ip), vehicle: acid diluted with saline): 8 of 8 | survivor count (dose: 32.0 mg/kg/injection, schedule: Q04DX003 (ip), vehicle: saline): 8 of 8 | survivor count (dose: 32.0 mg/kg/injection, schedule: Q08DX002 (ip), vehicle: acid diluted with saline): 8 of 8 | survivor count (dose: 32.0 mg/kg/injection, schedule: Q08DX002 (ip), vehicle: saline): 8 of 8 | survivor count (dose: 50.0 mg/kg/injection, schedule: Q01DX009 (ip), vehicle: saline): 10 of 10 and 9 of 9 | survivor count (dose: 64.0 mg/kg/injection, schedule: Q01DX001 (ip), vehicle: acid diluted with saline): 8 of 8 | survivor count (dose: 64.0 mg/kg/injection, schedule: Q01DX001 (ip), vehicle: saline): 7 of 8 | survivor count (dose: 64.0 mg/kg/injection, schedule: Q01DX001 (oral), vehicle: acid diluted with saline): 8 of 8 | survivor count (dose: 64.0 mg/kg/injection, schedule: Q01DX001 (oral), vehicle: saline): 8 of 8 | survivor count (dose: 64.0 mg/kg/injection, schedule: Q01DX001 (sc), vehicle: acid diluted with saline): 8 of 8 | survivor count (dose: 64.0 mg/kg/injection, schedule: Q01DX005 (ip), vehicle: acid diluted with saline): 4 of 8 | survivor count (dose: 64.0 mg/kg/injection, schedule: Q01DX005 (ip), vehicle: saline): 7 of 8 | survivor count (dose: 64.0 mg/kg/injection, schedule: Q01DX005 (iv), vehicle: saline): 0 of 8 | survivor count (dose: 64.0 mg/kg/injection, schedule: Q01DX009 (ip), vehicle: acid diluted with saline): 8 of 8 | survivor count (dose: 64.0 mg/kg/injection, schedule: Q01DX009 (ip), vehicle: saline): 8 of 8 | survivor count (dose: 64.0 mg/kg/injection, schedule: Q01DX009 (oral), vehicle: acid diluted with saline): 8 of 8 | survivor count (dose: 64.0 mg/kg/injection, schedule: Q01DX009 (oral), vehicle: saline): 8 of 8 | survivor count (dose: 64.0 mg/kg/injection, schedule: Q01DX009 (sc), vehicle: acid diluted with saline): 8 of 8 | survivor count (dose: 64.0 mg/kg/injection, schedule: Q01DX009 (sc), vehicle: saline): 5 of 8 | survivor count (dose: 64.0 mg/kg/injection, schedule: Q03HX008 (ip), vehicle: acid diluted with saline): 0 of 8 | survivor count (dose: 64.0 mg/kg/injection, schedule: Q04DX003 (ip), vehicle: acid diluted with saline): 8 of 8 | survivor count (dose: 64.0 mg/kg/injection, schedule: Q04DX003 (ip), vehicle: saline): 8 of 8 | survivor count (dose: 64.0 mg/kg/injection, schedule: Q08DX002 (ip), vehicle: acid diluted with saline): 8 of 8 | survivor count (dose: 64.0 mg/kg/injection, schedule: Q08DX002 (ip), vehicle: saline): 8 of 8 | survivor count (dose: 128.0 mg/kg/injection, schedule: Q01DX001 (ip), vehicle: acid diluted with saline): 7 of 8 | survivor count (dose: 128.0 mg/kg/injection, schedule: Q01DX001 (ip), vehicle: saline): 4 of 8 | survivor count (dose: 128.0 mg/kg/injection, schedule: Q01DX001 (oral), vehicle: acid diluted with saline): 8 of 8 | survivor count (dose: 128.0 mg/kg/injection, schedule: Q01DX001 (oral), vehicle: saline): 8 of 8 | survivor count (dose: 128.0 mg/kg/injection, schedule: Q01DX001 (sc), vehicle: acid diluted with saline): 8 of 8 | survivor count (dose: 128.0 mg/kg/injection, schedule: Q01DX005 (ip), vehicle: acid diluted with saline): 1 of 8 | survivor count (dose: 128.0 mg/kg/injection, schedule: Q01DX005 (iv), vehicle: saline): 0 of 8 | survivor count (dose: 128.0 mg/kg/injection, schedule: Q01DX009 (oral), vehicle: acid diluted with saline): 8 of 8 | survivor count (dose: 128.0 mg/kg/injection, schedule: Q01DX009 (oral), vehicle: saline): 8 of 8 | survivor count (dose: 128.0 mg/kg/injection, schedule: Q04DX003 (ip), vehicle: acid diluted with saline): 2 of 8 | survivor count (dose: 128.0 mg/kg/injection, schedule: Q04DX003 (ip), vehicle: saline): 3 of 8 | survivor count (dose: 128.0 mg/kg/injection, schedule: Q08DX002 (ip), vehicle: acid diluted with saline): 4 of 8 | survivor count (dose: 128.0 mg/kg/injection, schedule: Q08DX002 (ip), vehicle: saline): 6 of 8 | survivor count (dose: 256.0 mg/kg/injection, schedule: Q01DX001 (ip), vehicle: acid diluted with saline): 2 of 8 | survivor count (dose: 256.0 mg/kg/injection, schedule: Q01DX001 (oral), vehicle: acid diluted with saline): 8 of 8 | survivor count (dose: 256.0 mg/kg/injection, schedule: Q01DX001 (oral), vehicle: saline): 8 of 8 | survivor count (dose: 256.0 mg/kg/injection, schedule: Q01DX001 (sc), vehicle: acid diluted with saline): 8 of 8 | survivor count (dose: 256.0 mg/kg/injection, schedule: Q01DX009 (oral), vehicle: acid diluted with saline): 8 of 8 | survivor count (dose: 256.0 mg/kg/injection, schedule: Q01DX009 (oral), vehicle: saline): 8 of 8 | survivor count (dose: 256.0 mg/kg/injection, schedule: Q04DX003 (ip), vehicle: acid diluted with saline): 1 of 8 | survivor count (dose: 256.0 mg/kg/injection, schedule: Q08DX002 (ip), vehicle: acid diluted with saline): 1 of 8 | survivor count (dose: 512.0 mg/kg/injection, schedule: Q01DX001 (ip), vehicle: acid diluted with saline): 0 of 8 | survivor count (dose: 512.0 mg/kg/injection, schedule: Q01DX001 (oral), vehicle: acid diluted with saline): 8 of 8 | survivor count (dose: 512.0 mg/kg/injection, schedule: Q01DX001 (oral), vehicle: saline): 7 of 8 | survivor count (dose: 512.0 mg/kg/injection, schedule: Q01DX001 (sc), vehicle: acid diluted with saline): 1 of 8 | survivor count (dose: 1024.0 mg/kg/injection, schedule: Q01DX001 (oral), vehicle: acid diluted with saline): 8 of 8
